Data: article PMC5662737, “Structural and mechanistic insights into ATRX-dependent and -independent functions of the histone chaperone DAXX” (Nature Communications, 2017)
Results are given in words; binding and its absence hold for the method and conditions named. In cells and extracts the contact can be indirect. Some binding calls cover weakened binding; strength is not graded here. For some assays here: Sequences can lack the tags named with a protein.

Chains of the proteins cited; added tags and fusions are not shown. Lines headed by an entry give the natural chain unless they say otherwise; changes in a name come on top.
UniProt Q9UER7: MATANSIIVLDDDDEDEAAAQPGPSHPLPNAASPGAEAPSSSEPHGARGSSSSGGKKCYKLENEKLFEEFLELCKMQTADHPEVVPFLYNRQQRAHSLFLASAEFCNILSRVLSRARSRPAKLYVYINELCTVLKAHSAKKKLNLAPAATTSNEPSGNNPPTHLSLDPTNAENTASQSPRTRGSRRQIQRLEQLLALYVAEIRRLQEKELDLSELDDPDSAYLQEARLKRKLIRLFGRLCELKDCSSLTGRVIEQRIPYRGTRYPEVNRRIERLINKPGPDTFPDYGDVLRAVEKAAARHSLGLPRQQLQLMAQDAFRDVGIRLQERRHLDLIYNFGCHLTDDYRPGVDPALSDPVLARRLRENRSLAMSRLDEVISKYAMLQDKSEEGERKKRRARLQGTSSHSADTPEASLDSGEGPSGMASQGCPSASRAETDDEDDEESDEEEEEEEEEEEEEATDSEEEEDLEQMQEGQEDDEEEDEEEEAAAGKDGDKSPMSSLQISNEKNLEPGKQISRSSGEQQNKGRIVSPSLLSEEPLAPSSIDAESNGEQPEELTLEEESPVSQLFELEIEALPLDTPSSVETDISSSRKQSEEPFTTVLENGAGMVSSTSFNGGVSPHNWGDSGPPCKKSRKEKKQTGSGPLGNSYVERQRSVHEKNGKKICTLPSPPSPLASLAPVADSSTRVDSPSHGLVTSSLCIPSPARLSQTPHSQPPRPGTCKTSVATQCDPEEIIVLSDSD
UniProt O35613: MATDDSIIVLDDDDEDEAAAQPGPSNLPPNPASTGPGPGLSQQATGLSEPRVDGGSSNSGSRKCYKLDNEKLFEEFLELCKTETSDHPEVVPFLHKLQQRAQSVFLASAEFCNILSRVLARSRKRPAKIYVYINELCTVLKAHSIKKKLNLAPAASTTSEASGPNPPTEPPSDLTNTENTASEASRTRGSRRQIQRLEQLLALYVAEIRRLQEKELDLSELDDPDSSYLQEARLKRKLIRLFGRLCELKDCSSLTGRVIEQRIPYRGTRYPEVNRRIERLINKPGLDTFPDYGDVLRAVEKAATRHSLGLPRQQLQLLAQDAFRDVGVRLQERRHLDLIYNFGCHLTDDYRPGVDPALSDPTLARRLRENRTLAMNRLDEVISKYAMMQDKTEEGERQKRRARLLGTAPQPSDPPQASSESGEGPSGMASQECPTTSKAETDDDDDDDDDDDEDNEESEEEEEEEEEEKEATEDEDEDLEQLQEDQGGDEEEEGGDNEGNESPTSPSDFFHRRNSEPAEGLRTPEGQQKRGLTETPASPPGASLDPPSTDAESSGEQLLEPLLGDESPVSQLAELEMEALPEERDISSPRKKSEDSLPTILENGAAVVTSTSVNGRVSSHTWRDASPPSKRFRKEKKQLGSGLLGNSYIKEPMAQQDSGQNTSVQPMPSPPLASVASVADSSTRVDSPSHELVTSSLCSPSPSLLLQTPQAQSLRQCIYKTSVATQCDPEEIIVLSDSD
UniProt Q13263: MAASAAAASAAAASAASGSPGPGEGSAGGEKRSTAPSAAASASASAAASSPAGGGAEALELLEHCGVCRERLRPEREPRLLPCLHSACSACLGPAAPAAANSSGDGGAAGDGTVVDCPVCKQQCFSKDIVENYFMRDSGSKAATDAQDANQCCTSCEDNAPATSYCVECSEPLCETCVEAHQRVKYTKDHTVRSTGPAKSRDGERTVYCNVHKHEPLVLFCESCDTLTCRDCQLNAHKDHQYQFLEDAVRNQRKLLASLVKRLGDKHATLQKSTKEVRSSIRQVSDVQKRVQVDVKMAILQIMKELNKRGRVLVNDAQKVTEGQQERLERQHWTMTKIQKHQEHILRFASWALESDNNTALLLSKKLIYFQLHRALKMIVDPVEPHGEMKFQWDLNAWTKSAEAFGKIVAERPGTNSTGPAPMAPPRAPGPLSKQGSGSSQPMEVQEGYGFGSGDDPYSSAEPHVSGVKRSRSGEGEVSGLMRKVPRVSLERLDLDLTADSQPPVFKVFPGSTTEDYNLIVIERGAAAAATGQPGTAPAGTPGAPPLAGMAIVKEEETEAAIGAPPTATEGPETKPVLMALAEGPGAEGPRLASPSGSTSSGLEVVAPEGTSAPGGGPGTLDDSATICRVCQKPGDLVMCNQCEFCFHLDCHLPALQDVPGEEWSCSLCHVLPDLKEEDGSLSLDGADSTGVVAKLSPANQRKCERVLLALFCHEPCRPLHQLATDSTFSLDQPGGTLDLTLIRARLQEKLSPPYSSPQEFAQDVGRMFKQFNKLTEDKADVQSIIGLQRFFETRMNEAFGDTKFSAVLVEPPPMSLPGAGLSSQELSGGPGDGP
UniProt O09106: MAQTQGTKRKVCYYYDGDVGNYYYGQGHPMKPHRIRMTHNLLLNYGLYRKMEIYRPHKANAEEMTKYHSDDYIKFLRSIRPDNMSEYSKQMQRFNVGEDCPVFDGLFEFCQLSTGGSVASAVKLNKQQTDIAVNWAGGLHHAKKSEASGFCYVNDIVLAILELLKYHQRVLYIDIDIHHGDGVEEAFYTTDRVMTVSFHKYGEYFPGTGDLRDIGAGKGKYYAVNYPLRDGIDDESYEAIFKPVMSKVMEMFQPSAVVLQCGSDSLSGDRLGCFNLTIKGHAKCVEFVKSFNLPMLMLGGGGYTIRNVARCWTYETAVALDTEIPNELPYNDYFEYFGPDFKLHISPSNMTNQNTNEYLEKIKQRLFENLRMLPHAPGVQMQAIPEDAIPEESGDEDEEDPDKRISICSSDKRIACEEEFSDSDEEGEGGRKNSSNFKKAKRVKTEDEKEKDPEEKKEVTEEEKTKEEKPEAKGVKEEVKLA

How the values were obtained:
[1] = molecular target: FLAG-tagged human DAXX, transiently expressed in 293T cells (pRK5-FLAG-hDAXX) (human) (UniProt Q9UER7); experiment: co-IP; anti-FLAG M2 IP from lysate of transiently transfected 293T cells; 300 mM KCl, 0.12% Triton X-100, 50 µg/ml ethidium bromide; 3×FLAG peptide elution; immunoblot
[2] = molecular target: T1, GST-tagged murine ATRX DBM, wild type (mouse) (UniProt Q61687); experiment: pull-down; GST-tagged proteins on glutathione beads incubated with MEF nuclear extract (200 mM KCl), 4 °C, 4 h; washes with 350 mM KCl, 0.01% NP-40; immunoblot; only the target purified
T1 sequence: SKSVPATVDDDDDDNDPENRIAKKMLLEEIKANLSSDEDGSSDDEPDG

[3] = molecular target: FLAG-tagged murine DAXX, wild type (mouse) (UniProt O35613); experiment: co-IP; anti-FLAG M2 IP of FLAG-mDAXX from stably transduced MEFs (Daxx−/−); 300 mM KCl, 0.12% Triton X-100, 50 µg/ml ethidium bromide; 3×FLAG peptide elution; immunoblot
[4] = molecular target: FLAG-tagged murine DAXX F93A (mouse) (UniProt O35613); experiment: as above
[5] = molecular target: FLAG-tagged murine DAXX Y130A (mouse) (UniProt O35613); experiment: as above

“human KAP1, endogenous in 293T cells (from UniProt Q13263 1-835)” was tested, and the binding [1] was “binds”.
In the case of “mouse DAXX, endogenous, full length (from UniProt O35613 1-739)”, the binding [2] is reported as “binds”.
“mouse HDAC1, endogenous (from UniProt O09106 1-482) (enzyme)” was tested, and the binding [3] was “binds”, the binding [4] was “binds” and the binding [5] was “binds”.
